In publication PMC11240526:
No constants are given. Whether binding was seen depends on the method and setting. In cells and extracts the contact can be indirect. A yes stands for co-enrichment or nearness to the bait. Other partners may have been found.

Amino acid sequences for entries named in this document (tags omitted). Residues count along the entry.
UniProt P11912, residues 33-226: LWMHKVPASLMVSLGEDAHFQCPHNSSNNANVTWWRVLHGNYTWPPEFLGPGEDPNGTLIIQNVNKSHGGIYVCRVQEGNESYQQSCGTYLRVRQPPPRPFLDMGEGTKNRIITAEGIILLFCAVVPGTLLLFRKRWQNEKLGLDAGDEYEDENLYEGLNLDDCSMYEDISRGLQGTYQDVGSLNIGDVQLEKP
UniProt P40259, residues 29-229: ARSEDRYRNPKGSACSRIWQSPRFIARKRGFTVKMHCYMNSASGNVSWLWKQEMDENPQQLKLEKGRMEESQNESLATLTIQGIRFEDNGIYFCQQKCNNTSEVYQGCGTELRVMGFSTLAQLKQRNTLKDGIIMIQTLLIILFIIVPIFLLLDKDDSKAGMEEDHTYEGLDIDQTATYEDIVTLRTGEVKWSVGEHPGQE

Molecular target: CD79a (human (endogenous in Raji)) (UniProt P11912)
Assay: cross-linking + affinity purification with mass spectrometry; hypotonic lysate of Raji cells cross-linked with 5 mM DSSO, 30 min at RT; membrane fraction solubilised in 0.5% DOC lysis buffer; anti-CD79a pull-down on Protein G agarose beads; SDS-PAGE bands A-F digested in gel, MS1 identification …; no negative control antibody

binding: binds
Substance: CD79b (from UniProt P40259 29-229)
